# In patent publication US20090192100, “NOVEL USE OF SPIEGELMERS” (published 2009):
# The exact form of at least one protein or probe is not confirmed. For some of these results: No signal at the amounts used counts as a negative. Where a protein sequence is shown, tags need not be part of it.
# Columns and labels:
# [1] = test system: T1, HMGA1b-His6 S2G (Homo sapiens); experiment: binding assay; settings: L-RNA, purified recombinant protein, label: 5'-biotin, synthetic backbone, mirror-image nucleic acid
# T1 sequence: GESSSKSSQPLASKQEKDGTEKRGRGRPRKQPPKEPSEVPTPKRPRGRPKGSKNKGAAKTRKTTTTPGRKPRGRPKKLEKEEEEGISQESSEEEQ
# [2] = test system: T1, HMGA1b-His6 S2G (Homo sapiens); experiment: competition with a labelled probe; settings: L-RNA, purified recombinant protein, synthetic backbone, mirror-image nucleic acid; for binding result: competes in the low nanomolar range with dsDNA AT hook
sequence,measurement,setting,value
CCGACUUUGGUGGGUGUACCUUGACGGGGUAUAGGUGGGUGCAUAGUCGG [5'-biotin-NOX-A inverse spiegelmer],binding result,"[1]; Western blot: inverse spiegelmer did not recognise HMGA1b, variant of 5'-biotin-NOX-A spiegelmer",no binding
CCGACUUUGGUGGGUGUACCUUGACGGGGUAUAGGUGGGUGCAUAGUCGG [inverse NOX-A control spiegelmer],IC50,"[2]; no effect up to 0.5 uM, non-specific interaction only above 1 uM, variant of NOX-A spiegelmer",> 500 nM
GCUGAAUGAGGAUCGCAGGGGCGUGGCUGGGGUGGGCGACCGUUCAGC [NOX-f 48 nt spiegelmer],binding result,[2]; variant of 132-B3 NOX-f 48 nt aptamer,binds
GGAUCGCAGGGGCGUGGCUGGGGUGGGCGAUCC [NOX-f 33 nt spiegelmer],binding result,[2]; variant of NOX-f 48 nt spiegelmer,binds
GGCUGAUACGUGGGUGGAUAUGGGGCAGUUCCAUGUGGGUGGUUUCAGCC [5'-biotin-NOX-A spiegelmer],binding result,"[1]; Western blot: 3 nM biotin-spiegelmer detects 5 ug blotted HMGA1b, 1 mM Ca/Mg, variant of NOX-A spiegelmer",binds
GGCUGAUACGUGGGUGGAUAUGGGGCAGUUCCAUGUGGGUGGUUUCAGCC [NOX-A spiegelmer],IC50,"[2]; competition with biotin-dsDNA AT hook, 30 nM protein, 140 mM KCl, 0.8 mM MgCl2, poly(dGdC), RT, variant of 122-A1 NOX-A aptamer",15 nM
GGCUGAUACGUGGGUGGAUAUGGGGCAGUUCCAUGUGGGUGGUUUCAGCC [NOX-A-3'PEG spiegelmer],IC50,"[2]; 3'-PEG 2 kDa, competition with biotin-dsDNA AT hook, RT, variant of NOX-A spiegelmer",15 nM
